Experimental data from US9017689B2 (Circassia Limited, priority 2010, dated 2015).
End groups of sequences in plain letters are not given here.

Assay: peptide synthesis
Conditions: whole synthesis, HPLC, scale of the general procedure approximately 10 mg batch size, non-GMP

Row | Sequence | final purity (method not given)
1 | AERERIFKRFDANGEGK | 98.4%
2 | AKYMVIQGEPGRVIRGK | 97.3%
3 | ETLLRAVESYLLAHSDAY | 97.5%
4 | FNYETETTSVIPAARK | 99.2%
5 | KEMGETLLRAVESYLLAHS | 97.3%
6 | PAARMFKAFILEGDKLVPK | 97.4%
7 | PGTIKKISFPEGFPFKYV | 98.1%
8 | SNEIKIVATPEGGSILK | 97.9%
